Measured values as given in PubChem BioAssay AID720533 (National Center for Advancing Translational Sciences (NCATS), 2013).
Where “and” joins values, the source holds several entries; their conditions need not be identical. Identical values can stand only once. The campaign covered roughly 18,000 compounds. About 750 (4.2%) were called active. The inconclusive results got no clear call from the source; some entries with a clear call stand among them for comparison. Calls follow the shape of the full dose curve; tested in HEK293 cells. Potencies of inconclusive entries are doubtful fits and often do not repeat.

Test: qHTS for Inhibitors of binding or entry into cells for Lassa Virus
Conditions: Lassa virus pseudotyped entry inhibition, cell-based qHTS; activity change, negative = inhibition: at 49.2 µM (top of the series) unless noted
% is scaled to controls: 0 for no effect and ±100 for the full control effect; potency is read from the fitted curve at half-maximal effect.

Compound	Potency	activity change, negative = inhibition
COc1cc(=O)n2c(c1C(=O)N(C)Cc1nonc1C)CCN(Cc1ccc(C)cc1C)CC2	inconclusive: 10 µM [inhibitor, partial curve]	–
COc1cc(CCNC(C)=O)c(C(=O)/C=C/c2cccc(OC)c2OC)cc1OC	inconclusive: 25.1 µM [inhibitor, single point]	–
CO[C@H]1[C@H](NC(=O)c2cccs2)c2ccccc2C12CCN(Cc1cccn1-c1ccccn1)CC2	–	inactive: -0.696%
CO/C1=C\C(C)=C\[C@@H](C)[C@@H](O)[C@@H](C)C/C(C)=C/C=C\[C@H](OC)C([C@@H](C)[C@@H](O)[C@H](C)[C@@]2(O)C[C@@H](O)[C@H](C)C(C(C)C)O2)OC1=O (stereo partly drawn)	active: 0.0231 µM	–
O=S(=O)(c1cccc2c(Cl)cccc12)N1CCCNCC1	inconclusive: 31.6 µM [inhibitor, single point] and inconclusive: 35.5 µM [inhibitor, single point]	–
COc1ccc2[nH]cc(CCNc3ncnc4ccc(-c5ccccc5C#N)cc34)c2c1	inconclusive: 35.5 µM [inhibitor, single point]	–
Fc1ccc(C(OCCN2CCN(C/C=C/c3ccccc3)CC2)c2ccc(F)cc2)cc1	active: 15.8 µM	–
O=C1CC2(CCCC2)CC(=O)N1CCCCNCC1COc2ccccc2O1 (stereo not drawn)	inconclusive: 35.5 µM [inhibitor, single point]	–
C#CCCCON=C1C[C@@H](O)[C@H](O)[C@H]2[C@@H]3C(=O)N(C[C@@H]4CCCO4)C(=O)[C@@H]3CC[C@H]12	–	inconclusive: -11.3% [inhibitor] [at 8.59 µM]
CCn1c(-c2nonc2N)nc2c(C#CC(C)(C)O)nc(OC(CN)c3ccccc3)cc21 (stereo not drawn)	inconclusive: 8.88 µM [inhibitor, partial curve, poor fit]	–
COCc1ccc(CN2CCOc3c(O)cc(-c4cc(C)c5ccc(F)cc5n4)cc3C2)o1	inconclusive: 35.5 µM [inhibitor, single point]	–
CN(C)CCCN1c2ccccc2C(C)(C)c2ccccc21	inconclusive: 35.5 µM [inhibitor, single point]	–
COC1CC(OC2CC[C@@]3(C=O)C4CC[C@]5(C)C(C6=CC(=O)OC6)CC[C@@]5(O)C4CC[C@]3(O)C2)OC(C)C1O (stereo partly drawn)	active: 0.282 µM	–
CSc1nnc(CNC(=O)c2cccc3ccccc23)n1-c1ccccc1C	–	inactive: -20.2%
Cc1cccc2cc(CN(C(=O)c3ccc(C(F)(F)F)cc3)C3CC3)c(N3CCC(O)CC3)nc12	inconclusive: 20 µM [inhibitor, partial curve, poor fit]	–
CCn1c(-c2ccccc2F)nc2cc(C(=O)N3CCNC(=O)C3CC(=O)OC)cc(NC(C)=O)c21 (stereo not drawn)	–	inactive: -2.5%
C=C1C(=O)OC2C1CC/C(C)=C/CCC1(C)OC21 (stereo not drawn)	active: 11.2 µM	–
Cc1cccc(CNc2nc(-c3ccc(C(=O)N(C)C)cc3)nc3ccccc23)c1	inconclusive: 12.6 µM [inhibitor, partial curve]	–

Compound	Potency	activity change, negative = inhibition
CC(C)CC1C(=O)N(Cc2cn(CC3CCCCC3)nn2)CCS(=O)(=O)N1Cc1ccc(-c2ccncc2)cc1 (stereo not drawn)	inconclusive: 14.1 µM [inhibitor, partial curve, poor fit]	–
Clc1cc(Cl)c(OCC#CI)cc1Cl	inconclusive: 35.5 µM [inhibitor, partial curve]	–
O=C(C[C@H]1C(=O)N(Cc2ccccc2)C[C@@H]1Cc1ccccc1)Nc1ccccc1	inconclusive: 12.5 µM [inhibitor, partial curve]	–
Oc1cc(O)cc(/C=C/c2ccc(O)c(O)c2)c1	active: 22.4 µM	–
CN(C)CCCNc1nccc(-c2c(-c3ccc(F)cc3)nn3cc(C(F)(F)F)ccc23)n1	inconclusive: 22.3 µM [inhibitor, partial curve, poor fit]	–
C#C[C@]1(O)CC[C@H]2[C@H]3CCc4cc(O)ccc4[C@@H]3CC[C@@]21C	inconclusive: 11.2 µM [inhibitor, partial curve]	–
CCOC(=O)[C@@]1([C@@H](NC(=O)OC)c2cccc(C)c2)CCCC1=O	–	inactive: 9.39% [at 8.59 µM]
C=C1[C@H](CO)[C@@H](O)C[C@@H]1n1cnc2c(=O)[nH]c(N)nc21	–	inactive: -8.65%
NC[C@H]1O[C@H](O[C@H]2[C@H](O)[C@@H](O[C@H]3O[C@H](CO)[C@@H](O)[C@H](N)[C@H]3O)[C@H](N)C[C@@H]2N)[C@H](N)[C@@H](O)[C@@H]1O	inconclusive: 10 µM [inhibitor, partial curve, poor fit]	–
CCN1C(=O)[C@@H]2[C@H]3[C@H](O)[C@H](O)CC(=NO[C@@H](C)c4cc(-c5c(C)cc(C)cc5C)no4)[C@@H]3CC[C@H]2C1=O	–	inactive: -2.1% [at 8.59 µM]
C=C1C(=O)C23C(O)C1CCC2[C@]12COC3(O)C(O)C1C(C)(C)CC[C@H]2O (stereo partly drawn)	inconclusive: 35.5 µM [inhibitor, single point]	–
O=C1c2ccccc2C(=O)N1CCCC[C@]12Cc3c(ccc4ccccc34)[C@H](O1)c1c(cc(-c3ccccc3)oc1=O)O2	–	inactive: -13.5% [at 8.59 µM]
CC(C)OC(=O)c1cc2c(OCC(O)CNC(C)(C)C)cccc2[nH]1 (stereo not drawn)	–	inactive: -11.5%
H-CRKQAASIKVAVS-OH	–	inactive: -4.93%
CN1CCC[C@@H]1Cc1c[nH]c2ccc(CCS(=O)(=O)c3ccccc3)cc12	inconclusive: 39.8 µM [inhibitor, partial curve, poor fit]	–
CC(C)(C)Cn1nc(-c2ccc(Cl)cc2)c2c(N)ncnc21	inconclusive: 35.5 µM [inhibitor, partial curve, poor fit]	–
CN[C@@H]1C[C@@]2(C)O[C@@H]([C@@H]1OC)n1c3ccccc3c3c4c(c5c6ccccc6n2c5c31)C(=O)NC4	active: 1 µM	–
COc1ccc(CN(CCC(C)C)S(=O)(=O)c2ccccc2Br)c(OC)c1	–	inconclusive: -31.6% [inhibitor]
Cc1cnc(-n2ncc(C(=O)NCC3COCCO3)c2C2CC2)nc1-c1cccs1 (stereo not drawn)	–	inactive: 59.8%
